PMC6660665
Results are given in words; binding and its absence hold for the method and conditions named. Some entries that bind do so weakly or less than the wild type.

Target: SleB C-terminal catalytic domain (SleB^Cat 125–253) (B. anthracis)
Test: two-hybrid

SleB C-terminal catalytic domain (SleB^Cat 125–253) (from UniProt A0A6L8PLE1 125-253) (domain or fragment)
binding: binds
